Measurements taken from paper PMC4617706.
No constants are given. Whether binding was seen depends on the method and setting. In cells and extracts the contact can be indirect. A yes stands for co-enrichment or nearness to the bait. Other partners may have been found.

Sequences of proteins named here, by UniProt entry; tags and fusion partners are left off. A change or cut given only in a name is not applied to a line headed by its entry. A line that says so, or that is headed by a name, gives the form on record, which may keep a tag or linker.
GST-fused NINL^isoB_538-825aa (Q9Y2I6, form named): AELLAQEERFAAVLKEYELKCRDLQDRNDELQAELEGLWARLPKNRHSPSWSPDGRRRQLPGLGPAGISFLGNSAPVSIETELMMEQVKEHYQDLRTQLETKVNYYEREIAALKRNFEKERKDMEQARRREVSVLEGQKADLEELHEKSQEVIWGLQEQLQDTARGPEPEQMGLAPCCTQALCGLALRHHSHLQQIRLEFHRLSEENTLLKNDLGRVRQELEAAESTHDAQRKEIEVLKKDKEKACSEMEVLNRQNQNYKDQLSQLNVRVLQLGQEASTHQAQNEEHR
UniProt Q3ZBD2: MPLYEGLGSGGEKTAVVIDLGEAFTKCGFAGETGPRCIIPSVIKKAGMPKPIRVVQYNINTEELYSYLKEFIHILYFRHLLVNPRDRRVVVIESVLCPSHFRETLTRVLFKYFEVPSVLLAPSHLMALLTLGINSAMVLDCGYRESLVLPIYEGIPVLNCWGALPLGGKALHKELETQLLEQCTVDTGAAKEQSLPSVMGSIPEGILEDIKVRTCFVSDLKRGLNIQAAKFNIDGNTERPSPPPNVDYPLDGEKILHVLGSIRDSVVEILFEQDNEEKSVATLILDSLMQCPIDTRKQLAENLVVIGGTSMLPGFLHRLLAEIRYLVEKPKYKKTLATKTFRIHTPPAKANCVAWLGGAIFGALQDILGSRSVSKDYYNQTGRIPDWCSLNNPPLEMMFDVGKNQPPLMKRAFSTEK
UniProt P79136: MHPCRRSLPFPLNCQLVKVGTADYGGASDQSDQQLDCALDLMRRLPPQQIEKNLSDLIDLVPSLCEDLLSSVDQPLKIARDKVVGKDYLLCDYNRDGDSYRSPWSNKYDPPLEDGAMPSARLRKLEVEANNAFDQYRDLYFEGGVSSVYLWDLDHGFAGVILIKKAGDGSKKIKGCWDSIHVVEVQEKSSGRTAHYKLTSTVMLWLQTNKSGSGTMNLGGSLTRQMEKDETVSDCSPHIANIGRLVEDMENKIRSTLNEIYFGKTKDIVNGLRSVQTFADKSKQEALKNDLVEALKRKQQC
UniProt A4IFE3: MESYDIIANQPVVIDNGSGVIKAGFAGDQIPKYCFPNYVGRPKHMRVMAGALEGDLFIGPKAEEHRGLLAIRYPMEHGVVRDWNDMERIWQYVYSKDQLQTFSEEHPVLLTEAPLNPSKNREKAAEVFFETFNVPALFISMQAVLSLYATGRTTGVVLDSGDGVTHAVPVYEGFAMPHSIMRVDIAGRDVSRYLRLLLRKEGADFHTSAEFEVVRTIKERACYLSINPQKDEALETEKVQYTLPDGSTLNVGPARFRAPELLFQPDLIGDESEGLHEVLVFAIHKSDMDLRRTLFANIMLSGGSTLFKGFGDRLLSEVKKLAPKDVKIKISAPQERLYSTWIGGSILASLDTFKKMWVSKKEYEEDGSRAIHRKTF
UniProt Q3ZCF0: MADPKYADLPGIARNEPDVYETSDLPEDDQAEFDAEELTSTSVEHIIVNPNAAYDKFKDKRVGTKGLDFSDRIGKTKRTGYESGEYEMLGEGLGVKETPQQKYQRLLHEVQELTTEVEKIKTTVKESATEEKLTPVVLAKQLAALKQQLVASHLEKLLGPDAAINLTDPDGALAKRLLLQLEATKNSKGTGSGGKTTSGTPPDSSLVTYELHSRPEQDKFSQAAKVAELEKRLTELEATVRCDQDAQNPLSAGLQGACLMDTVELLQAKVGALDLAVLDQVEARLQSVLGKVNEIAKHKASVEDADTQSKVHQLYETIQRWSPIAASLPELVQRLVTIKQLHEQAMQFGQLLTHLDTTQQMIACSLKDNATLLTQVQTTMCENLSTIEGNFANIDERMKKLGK

Target: GST-fused NINL^isoB_538-825aa (human) (UniProt Q9Y2I6)
Assay: affinity purification with mass spectrometry; GST pull-down from bovine retinal extracts; GST fusion immobilized on glutathione sepharose 4B beads, overnight at 4°C; elution with 100 mM GSH; LC-MS/MS; n = 4, GST alone n = 3; only the target purified

For “ARP10 (bovine retina) (from UniProt Q3ZBD2 1-417)”, the binding was “binds”.

“CAPZB (bovine retina) (from UniProt P79136 1-301)” was tested, and the binding was “binds”.

In the case of “ARP1B (bovine retina) (from UniProt A4IFE3 1-376)”, the binding is reported as “binds”.

In the case of “DCTN2 (bovine retina) (from UniProt Q3ZCF0 1-403)”, the binding is reported as “binds”.
